This is one part of the list. Further columns of the screen follow, without active or inactive calls. The list favours compounds with an active or inconclusive main result. The note in brackets gives the kind of curve behind each potency; many fits are weak.
Assay: qHTS Assay to Find Inhibitors of Chronic Active B-Cell Receptor Signaling
Conditions: ABC-DLBCL IkBa-CBG/CBR reporter, luminescence ratio (green luciferase fused to IkBa over red control in TMD8 lymphoma cells), 4 h
In short: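 Cell line TMD8 (human ABC DLBCL), stably expressing tet-inducible CBG68-IkBa fusion and CBR; IMDM/0.5% FBS; cpd up to 46 uM; dox induction, 4 h, 37C/5% CO2; dual luminescence; green/red ratio; MG132 control.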

[1] = measured here: CBR red luminescence, cell number
[2] = measured here: IkBa-CBG green luminescence

With `Cc1cccc(-n2c(C)nc3ccccc3c2=O)n1` as the compound, how does the AC50 [1] read?
The AC50 was 13 µM [rising, partial curve].

For `COc1ccc(OC)c(/C=N/OC(=O)Nc2ccc(Cl)cc2)c1`, which AC50 [1] is on record?
Its AC50 is 12.6 µM [rising, partial curve].

With `COc1cccc(-n2c(=S)[nH]c3ccccc3c2=O)c1` as the compound, how does the AC50 [1] read?
The AC50 was 2.82 µM [rising, partial curve, poor fit].

For `CCCCCCCCCCn1ccc(=N)cc1`, which AC50 [1] is on record?
The AC50 was 11.2 µM [falling, partial curve, poor fit].

With `COC1=CC(=O)O[C@@H](/C=C/c2ccccc2)C1` as the compound, how does the AC50 [1] read?
Its AC50 is 16.4 µM [rising, single point].

With `C=COCCn1c(C)c(C(=O)OCC)c2cc(O)ccc21` as the compound, how does the AC50 [1] read?
Its AC50 is 31.6 µM [rising, single point].

For `CSc1ncc(CN2CCCC(C(=O)c3cccc(Cl)c3)C2)cn1` (centres undefined), which AC50 [1] is on record?
Its AC50 is 0.708 µM [falling, full curve, poor fit].

Which AC50 [1] does the source give for `COc1ccc(-c2nn(CCC#N)cc2C(=O)NCc2ccccc2)cc1OC` here?
Its AC50 is 3.16 µM [rising, full curve, poor fit].

For `O=c1[nH]c(=O)n(Cc2ccc(F)cc2)c(O)c1/C=N/Nc1ccccc1`, which AC50 [1] is on record?
The AC50 was 1.12 µM [rising, full curve, poor fit].

For `CC1CN=C(NCc2ccccc2)S1` (centres undefined), which AC50 [1] is on record?
Its AC50 is 29.1 µM [rising, partial curve, poor fit].

With `CN1CCC(N(C)c2ncnc3ccc(Br)cc23)CC1` as the compound, how does the AC50 [1] read?
Its AC50 is 6.51 µM [falling, partial curve].

With `O=C1C2C3CCC(O3)C2C(=O)N1CCO` (centres undefined) as the compound, how does the AC50 [1] read?
The AC50 was 6.31 µM [rising, single point].

With `O=S(=O)(c1ccc(F)cc1)N1CCCC1c1cccnc1` (centres undefined) as the compound, how does the AC50 [1] read?
Its AC50 is 35.5 µM [falling, single point].

For `CN(C)c1ccc2c(c1)N=C(c1ccco1)OP2(=S)N1CCOCC1` (centres undefined), which AC50 [1] is on record?
The AC50 was 0.891 µM [rising, full curve, poor fit].

For `Cc1ccc(N2C(=O)NC(=O)/C(=C\c3cc(C)n(-c4sc5c(c4C#N)CCCC5)c3C)C2=O)cc1`, which AC50 [1] is on record?
The AC50 was 18.4 µM [rising, single point].

What about the AC50 [2] of the same compound?
The AC50 was 20.6 µM [falling, partial curve, poor fit].

With `Cn1/c(=N/NC(=O)c2ccccc2Br)sc2ccccc21` as the compound, how does the AC50 [1] read?
The AC50 was 10 µM [falling, partial curve].

For `COC(=O)C1C2c3ccccc3OC1(C)N=c1s/c(=C/c3cnn(C)c3C)c(=O)n12` (centres undefined), which AC50 [1] is on record?
Its AC50 is 6.51 µM [rising, single point].

Which AC50 [1] does the source give for `COP(=O)(OC)C(O)C(Cl)(Cl)Cl` (centres undefined) here?
The AC50 was 2.51 µM [rising, partial curve, poor fit].

With `CCn1c(NN=O)nc2ccccc21` as the compound, how does the AC50 [1] read?
Its AC50 is 7.94 µM [falling, partial curve].

What about the AC50 [2] of the same compound?
Its AC50 is 6.31 µM [rising, partial curve, poor fit].

Which AC50 [1] does the source give for `O=c1[nH]c(O)c(N=Nc2ccc([N+](=O)[O-])cc2)c(=O)[nH]1` here?
The AC50 was 31.6 µM [falling, single point].

For `c1ccc(Cn2ccnc2)cc1`, which AC50 [1] is on record?
The AC50 was 10 µM [rising, partial curve, poor fit].

With `CC(=O)OC1(c2ccccc2)CCN(C)C2CCCCC21` (centres undefined) as the compound, how does the AC50 [1] read?
Its AC50 is 0.58 µM [falling, full curve, poor fit].

With `CCCCCSc1cc(OC)c(CCN)cc1OC` as the compound, how does the AC50 [1] read?
Its AC50 is 35.5 µM [falling, single point].

Which AC50 [1] does the source give for `O=[N+]([O-])c1ccc(Sc2ncccn2)c([N+](=O)[O-])c1` here?
Its AC50 is 14.1 µM [falling, partial curve, poor fit].

For `O=C(COC(=O)c1ccc(O)cc1)Nc1ccc(Cl)cc1C(=O)c1ccccc1`, which AC50 [1] is on record?
The AC50 was 29.1 µM [falling, single point].

For `CN=C(SCc1cc2c(cc1Cl)OCO2)c1c(O)n(C)c(=O)n(C)c1=O`, which AC50 [1] is on record?
The AC50 was 10 µM [falling, partial curve, poor fit].

Which AC50 [1] does the source give for `CCn1nc(C)cc1C(=O)Sc1ccc(Cl)cc1Cl` here?
Its AC50 is 22.4 µM [falling, single point].

For `COc1ccc(/C=C2\CC/C(=C\c3ccc(OC)c(OC)c3)C2=O)cc1OC`, which AC50 [1] is on record?
The AC50 was 3.16 µM [falling, full curve, poor fit].

With `CC(=NCc1ccco1)c1c(O)n(-c2ccc(C)cc2)c(=O)[nH]c1=O` as the compound, how does the AC50 [1] read?
The AC50 was 3.98 µM [rising, partial curve, poor fit].

With `Nc1c(C(=O)NCc2ccco2)c2nc3ccccc3nc2n1CCN1CCCCC1` as the compound, how does the AC50 [1] read?
The AC50 was 23.1 µM [falling, partial curve, poor fit].

For `O=c1c2ccccc2nc(CNc2ccccc2)n1-c1ccccc1`, which AC50 [1] is on record?
Its AC50 is 14.1 µM [falling, partial curve].

For `COc1cc2nc(N3CCN(c4cc(C)ccc4C)CC3)nc(N)c2cc1OC`, which AC50 [1] is on record?
The AC50 was 22.4 µM [falling, single point].

Which AC50 [1] does the source give for `Cc1ccsc1/C=C1\C(=O)NC(=S)N(C)C1=O` here?
Its AC50 is 2.82 µM [falling, full curve].

For `COC(=O)C1=C(c2ccc(F)cc2OCc2ccccc2)C[C@@H]2CC[C@H]1N2C(=O)N1CCCCC1`, which AC50 [1] is on record?
Its AC50 is 11.6 µM [falling, partial curve].

With `CCOC(=O)c1c(C)n(Cc2ccc3c(c2)OCO3)c2ccc(O)cc12` as the compound, how does the AC50 [1] read?
The AC50 was 3.26 µM [falling, partial curve, poor fit].

Which AC50 [1] does the source give for `CCc1ccc(CNCCc2c[nH]c3ccccc23)cc1` here?
The AC50 was 35.5 µM [falling, single point].

Which AC50 [1] does the source give for `COc1ccc(OC)c(CN2CCN(C(=O)COc3cccc(C)c3)CC2)c1` here?
Its AC50 is 4.47 µM [rising, full curve, poor fit].

With `COc1ccc2c(c1)CC1(CN2C)C(=O)NC(=O)N(c2ccc(C)cc2)C1=O` (centres undefined) as the compound, how does the AC50 [1] read?
The AC50 was 23.1 µM [falling, single point].

Which AC50 [1] does the source give for `O=[N+]([O-])c1ccc(N2CCCCCC2)c2ncccc12` here?
The AC50 was 15.8 µM [rising, single point].

For `Cn1cccc1/C=C1\C(=O)NC(=O)N(Cc2ccccc2)C1=O`, which AC50 [1] is on record?
The AC50 was 35.5 µM [rising, single point].

Which AC50 [1] does the source give for `COc1ccc(NP(=O)(Oc2ccc(Cl)cc2)Oc2ccc(Cl)cc2)cc1OC` here?
The AC50 was 29.1 µM [falling, single point].

What about the AC50 [2] of the same compound?
Its AC50 is 32.6 µM [rising, partial curve, poor fit].
